{"source": "PubChem BioAssay AID540256", "about": "(National Center for Advancing Translational Sciences (NCATS), 2011)", "note": "Values joined by “and” are separate entries in the source; they are usually repeats but may differ in a detail not shown here. Equal values may be shown once. Among all 300,000 compounds or so, about 3,700 (1.2%) were called active. The inconclusive results got no clear call from the source; some entries with a clear call stand among them for comparison. Calls follow the shape of the full dose curve; tested in HEK293 cells. Where the call is inconclusive, the potency comes from a doubtful curve fit. % is scaled to controls: 0 for no effect and ±100 for the full control effect; potency is read from the fitted curve at half-maximal effect.", "data": [{"test": "qHTS for Inhibitors of binding or entry into cells for Lassa Virus; also: nearly all actives have a fitted effect of over 50% in size", "details": "Lassa virus pseudotype entry inhibition, cell reporter; activity change, negative = inhibition: at 37.9 µM (top of the series) unless noted", "values": [{"compound": "Cc1ccc(C(=O)/C=C/N(C)C)o1", "activity change, negative = inhibition": "inactive: -0.541% [at 46.1 µM]"}, {"compound": "CCS(=O)(=O)c1ncc(Cl)c(C(=O)Nc2c(C(=O)Nc3cccc(C)c3)oc3ccccc23)n1", "Potency": "inconclusive: 6.31 µM [inhibitor, partial curve, poor fit]"}, {"compound": "COc1ccc(/C=N/N2C(=O)c3ccccc3C2=O)cc1", "activity change, negative = inhibition": "inactive: -3.97%"}, {"compound": "COc1ccc(C)cc1NC(=O)c1cc2c(=O)n(Cc3cccnc3)ccc2nc1C", "activity change, negative = inhibition": "inactive: 15.8% [at 46.1 µM]"}, {"compound": "CCN(Cc1ccccc1)C(=O)c1cc(S(=O)(=O)N2CCOCC2)ccc1N1CCCC1", "Potency": "inconclusive: 5.01 µM [inhibitor, full curve, poor fit]"}, {"compound": "CCc1ccccc1NC(=O)Cc1ccc(NC(=O)N2CCCCc3ccccc32)cc1", "Potency": "inconclusive: 8.91 µM [inhibitor, partial curve]"}, {"compound": "CC(Cn1cncn1)NC(=O)c1cc(COc2cccc(C(F)(F)F)c2)on1", "note": "(configuration not stated)", "activity change, negative = inhibition": "inactive: -1.46%"}, {"compound": "O=C(CSc1cn(CCNC(=O)c2c(F)cccc2F)c2ccccc12)Nc1ccc(F)cc1", "activity change, negative = inhibition": "inactive: -2.08% [at 46.1 µM]"}, {"compound": "CCOC(=O)C1=C(C)NC(C)=C(C(=O)OC)C1c1cccc([N+](=O)[O-])c1", "note": "(configuration not stated)", "Potency": "inconclusive: 9.2 µM [inhibitor, partial curve, poor fit]"}, {"compound": "COc1ccc(-n2ncc(C(=O)N3CCN(c4cc(C)ccc4C)CC3)c2C2CCN(C(=O)OC(C)(C)C)CC2)cc1", "Potency": "inconclusive: 11.2 µM [inhibitor, partial curve, poor fit]"}, {"compound": "COc1ccc(N2CCN(C(=O)NCc3ccc(OC)c(Cl)c3)CC2)cc1", "activity change, negative = inhibition": "inactive: 1.44%"}, {"compound": "COc1cc2c(cc1OC)/C(=C/C(=O)c1ccc(OC)c([N+](=O)[O-])c1)NCC2", "Potency": "inconclusive: 3.16 µM [inhibitor, partial curve, poor fit]"}, {"compound": "Cc1occc1C(=O)NCCc1cccc(Cl)c1", "activity change, negative = inhibition": "inactive: 3.99%"}, {"compound": "CC1(C)CC(=O)C2=C(C1)OC(N)=C(C#N)C21CCN(Cc2ccccc2)CC1", "activity change, negative = inhibition": "inactive: -18.7%"}, {"compound": "O=C(N/N=C\\c1cccc(Cl)c1)c1ccc(Cn2cccn2)o1", "Potency": "inconclusive: 0.794 µM [activator, full curve, poor fit]"}, {"compound": "O=C(CCc1ccc(S(=O)(=O)N2CCOCC2)cc1)N/N=C/c1ccc(F)cc1F", "Potency": "inconclusive: 12.6 µM [inhibitor, partial curve, poor fit]"}, {"compound": "CCOC(=O)c1ccccc1NC(=O)CN1CCCN(Cc2cccc(Cl)c2)S1(=O)=O", "Potency": "inconclusive: 10 µM [activator, partial curve, poor fit]"}, {"compound": "CCOC(=O)c1cnc2c(c(C)nn2CC)c1NC1CC1", "activity change, negative = inhibition": "inactive: -11.1%"}, {"compound": "COc1ccc(C(=O)C2CCCN(Cc3cnc(C)s3)C2)c(OC)c1", "note": "(configuration not stated)", "Potency": "inconclusive: 11.2 µM [inhibitor, partial curve]"}, {"compound": "CCCCNC(=O)c1cc(-c2ccc(OC)cc2)nc2n[nH]c(-c3cccc([N+](=O)[O-])c3)c12", "activity change, negative = inhibition": "inactive: -8.01% [at 46.1 µM]"}, {"compound": "CCOc1ccc(C(=O)C2CCN(CC(=O)Nc3nccs3)CC2)cc1", "Potency": "inconclusive: 35.5 µM [inhibitor, partial curve, poor fit]"}, {"compound": "COC(=O)c1cc(CSc2nnc(NC3CCCCC3)s2)oc1C", "Potency": "inconclusive: 32.6 µM [inhibitor, single point]"}, {"compound": "CCNS(=O)(=O)c1ccc2c(c1)n(C)c(=O)n2C", "Potency": "inconclusive: 6.51 µM [activator, single point]"}, {"compound": "CC(C)OC(=O)/C(=C/c1ccc2c(c1)c1ccccc1n2C)NC(=O)c1ccccc1", "Potency": "inconclusive: 35.5 µM [inhibitor, single point]"}, {"compound": "CC(=O)Nc1ccc(/C=C(\\C#N)C(=O)NCc2ccccc2)cc1", "activity change, negative = inhibition": "inactive: 7.47%"}, {"compound": "CC(=O)Nc1cccc(NC(=O)c2cc(C)on2)c1", "activity change, negative = inhibition": "inactive: 14.7%"}, {"compound": "CCCCNC(=O)c1cn(CC(C)C)c(=O)c2c1c1ccccc1n2C", "Potency": "inconclusive: 12.6 µM [inhibitor, partial curve]"}, {"compound": "COc1ccc(Cl)cc1N(C)C(=O)c1cc2c(=O)oc3ccc(C)cc3c2s1", "Potency": "inconclusive: 35.5 µM [inhibitor, single point]"}, {"compound": "COc1ccc(NC(=O)CN2C(=O)N(C)Cc3ccccc32)c(C)c1", "Potency": "inconclusive: 11.2 µM [activator, partial curve, poor fit]"}, {"compound": "COc1ccc(Cc2nc3c4cnn(-c5ccccc5F)c4ncn3n2)cc1", "Potency": "inconclusive: 35.5 µM [activator, single point]"}, {"compound": "COc1cc(C)nc(NC(=S)N(C)C(=O)c2ccccc2)n1", "activity change, negative = inhibition": "inactive: -2.86% [at 46.1 µM]"}, {"compound": "CC(C)N1CC(C(=O)Nc2ccccc2)CC1=O", "note": "(configuration not stated)", "activity change, negative = inhibition": "inactive: 2.07%"}, {"compound": "CCC(C(=O)NCc1ccc(OC)c(OC)c1)n1nc(C)c2c(C)n(-c3ccc(C)cc3)nc2c1=O", "note": "(configuration not stated)", "Potency": "inconclusive: 25.1 µM [inhibitor, single point]"}, {"compound": "CCC(C)(C)NC(=O)CN(C(=O)c1snc(C(N)=O)c1N)c1ccc2c(c1)OCCO2", "Potency": "inconclusive: 18.3 µM [inhibitor, partial curve, poor fit]"}, {"compound": "CN(Cc1ccc(OC(F)F)cc1)C(=O)c1ccccc1Sc1ccccc1C#N", "Potency": "inconclusive: 35.5 µM [inhibitor, single point]"}, {"compound": "Cc1ccc(-n2c(-c3ccccc3)cc(=O)nc2C)cc1", "Potency": "inconclusive: 3.66 µM [inhibitor, single point]"}, {"compound": "O=C(NNC(=O)c1ccccc1-c1ccccc1C(=O)O)c1cccc([N+](=O)[O-])c1", "activity change, negative = inhibition": "inactive: 10.7%"}, {"compound": "COc1ccccc1C(=O)N(CCC1CCCN1C)c1nc2ccccc2s1", "note": "(configuration not stated)", "Potency": "inconclusive: 35.5 µM [inhibitor, single point]"}, {"compound": "COc1ccc(CCNC(=O)c2nc(-c3cccs3)no2)cc1OC", "Potency": "inconclusive: 35.5 µM [inhibitor, single point]"}, {"compound": "CC(OC(=O)Cc1ccc(Cl)cc1)C(=O)NC1CCCCC1C", "note": "(configuration not stated)", "Potency": "inconclusive: 5.62 µM [inhibitor, single point]"}, {"compound": "Cc1ccc(NS(=O)(=O)c2cc(-c3cnc(C4CC4)o3)ccc2C)cc1Cl", "Potency": "inconclusive: 8.91 µM [inhibitor, partial curve]"}, {"compound": "C=CCn1c(=O)/c(=C/c2ccc(Cl)cc2)s/c1=C(/C#N)c1nnc2n1CCCCC2", "Potency": "inconclusive: 4.61 µM [inhibitor, full curve, poor fit]"}, {"compound": "COc1ccc(NC(=O)N2CCOc3ccc(Cl)cc32)cc1", "Potency": "inconclusive: 11.2 µM [inhibitor, single point]"}, {"compound": "CCOc1ccccc1NC(=O)CCNS(=O)(=O)c1cccc2nonc12", "Potency": "inactive and inconclusive: 35.5 µM [activator, single point]"}, {"compound": "CC(C)Oc1ccc(C(=O)NCC(c2ccc(N(C)C)cc2)N2CCCC2)cc1", "note": "(configuration not stated)", "activity change, negative = inhibition": "inactive: -29.6% [at 46.1 µM]"}, {"compound": "CC(C)N1CCC(N2CCN(C3CCCCC3)CC2CCO)CC1", "note": "(configuration not stated)", "activity change, negative = inhibition": "inactive: -17.1% [at 46.1 µM]"}, {"compound": "CS(=O)(=O)Nc1ccccc1C(=O)N1CCCC1", "activity change, negative = inhibition": "inactive: 4.09%"}, {"compound": "Cc1ccc(C)c(NC(=O)Cn2cc(C(=O)c3cccs3)c3ccccc32)c1", "Potency": "inconclusive: 3.55 µM [inhibitor, single point]"}, {"compound": "COc1ccc(NC(=O)CCCNC(=O)Cn2cnc3sc(C)c(C)c3c2=O)cc1OC", "Potency": "inconclusive: 1.26 µM [activator, single point]"}, {"compound": "O=C(c1ccc(Cl)c(S(=O)(=O)N2CCCCC2)c1)N1CCCCC1", "Potency": "inconclusive: 6.31 µM [inhibitor, partial curve, poor fit]"}, {"compound": "CCC1CCCCN1CCCNC(=O)c1ccc2c(=O)n(Cc3ccc(OC)cc3)c(=O)[nH]c2c1", "note": "(configuration not stated)", "Potency": "inconclusive: 0.0052 µM [inhibitor, full curve, poor fit]"}, {"compound": "COc1ccc(C2NC(=O)N(C)C3=C2C(=O)N(c2cccc(C(=O)O)c2)C3)cc1", "note": "(configuration not stated)", "activity change, negative = inhibition": "inactive: 18.5% [at 46.1 µM]"}, {"compound": "O[Si](CCCN1CCCCC1)(c1ccc(F)cc1)C1CCCCC1", "note": "(configuration not stated)", "Potency": "active: 5.17 µM"}, {"compound": "COc1ccccc1CCNC(=O)C(=O)NCC1OCCN1S(=O)(=O)c1ccc2c(c1)OCCO2", "note": "(configuration not stated)", "Potency": "inconclusive: 11.2 µM [inhibitor, partial curve, poor fit]"}, {"compound": "CC1=C(C(=O)Nc2ccccc2)S(=O)(=O)CCO1", "Potency": "inconclusive: 12.6 µM [inhibitor, partial curve, poor fit]"}, {"compound": "O=C(CN1C(=O)COc2ccccc21)N(Cc1ccccc1)Cc1ccccn1", "activity change, negative = inhibition": "inactive: 3.56%"}, {"compound": "Cn1c2c(c(=O)n(C)c1=O)C(c1cccc(F)c1)C(C#N)=C(N)O2", "note": "(configuration not stated)", "Potency": "inconclusive: 1 µM [inhibitor, full curve, poor fit]"}, {"compound": "CCOC(=O)N1CCN(C(=O)CN(C2CCCCC2)S(=O)(=O)c2ccc(Cl)cc2)CC1", "Potency": "inconclusive: 20.6 µM [inhibitor, partial curve, poor fit]"}, {"compound": "O=C(Nc1ccc2c(c1)OCCO2)c1cccc(C(=O)Nc2ccc3c(c2)OCCO3)c1", "Potency": "inconclusive: 35.5 µM [inhibitor, single point]"}, {"compound": "O=C(CCc1nc2ccccc2[nH]1)NCc1ccc2c(c1)OCO2", "activity change, negative = inhibition": "inactive: 0.588%"}, {"compound": "COCCNCCCCOc1ccc(Br)cc1C", "Potency": "inconclusive: 14.6 µM [inhibitor, partial curve, poor fit]"}, {"compound": "NC(=O)c1cc2ccc(O)cc2oc1=Nc1ccccc1", "Potency": "inconclusive: 3.16 µM [inhibitor, partial curve, poor fit]"}, {"compound": "COc1ccc(C(=O)NNc2ncnc3c2cnn3-c2cccc(Cl)c2)cc1OC", "Potency": "inconclusive: 22.4 µM [inhibitor, single point]"}, {"compound": "COc1cccc(N2CC(NC(=O)C(=O)c3c(C)[nH]c4ccccc34)CC2=O)c1", "note": "(configuration not stated)", "activity change, negative = inhibition": "inactive: 14.6%"}, {"compound": "CC(C)Nc1nc(Cl)nc(NCCOc2ccccc2)n1", "Potency": "inconclusive: 20 µM [activator, single point]"}, {"compound": "O=C(O)C1CCN(C(=O)CCc2ccccc2)CC1", "Potency": "inconclusive: 8.91 µM [activator, partial curve, poor fit]"}, {"compound": "COc1ccccc1-c1cc(C(=O)Nc2cc(OC)c(OC)c(OC)c2)no1", "Potency": "inconclusive: 0.794 µM [inhibitor, full curve, poor fit]"}]}]}
